This experiment is described as follows: qHTS Assay to Find Inhibitors of Chronic Active B-Cell Receptor Signaling. The note with it: ABC-DLBCL IkBa-CBG/CBR reporter, luminescence ratio (green luciferase fused to IkBa over red control in TMD8 lymphoma cells), 4 h. The method in brief: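 Cell line TMD8 (human ABC DLBCL), stably expressing tet-inducible CBG68-IkBa fusion and CBR; IMDM/0.5% FBS; cpd up to 46 uM; dox induction, 4 h, 37C/5% CO2; dual luminescence; green/red ratio; MG132 control.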

The mark [1] stands for this setting: measured here: CBR red luminescence, cell number.

The other results are listed elsewhere or left out. Further columns of the screen follow, without active or inactive calls. Compounds called inactive in the main read-out are mostly missing here. Words in brackets tell the shape of the fitted curve; partial curves, single points and poor fits give uncertain potencies.

By AC50 is commonly meant the midpoint of the concentration-response curve, whichever way the signal moves.

Turning to `COc1ccc(S(=O)(=O)N(C)C)cc1NC(=O)CSc1nncs1`, the AC50 under setting [1] was 14.1 µM [rising, partial curve, poor fit]. `N#Cc1nc(Cc2cccc3ccccc23)oc1NCCN1CCCCC1`: under setting [1], the AC50 is 12.6 µM [falling, partial curve, poor fit]. On the same count and under the same terms, the figure for `COc1ccc(/C=N/NC(=O)c2ccc(Cn3cc([N+](=O)[O-])cn3)o2)cc1O` is 4.61 µM [falling, partial curve, poor fit].

Take `COC(=O)c1ccc(NC(=O)c2cccc(C)c2[N+](=O)[O-])cc1`: the AC50 under setting [1] was 3.98 µM [falling, partial curve, poor fit]. On to `COc1ccc(-c2noc(CCC(=O)NCCc3ccccc3)n2)cc1OC`, for which the AC50 under setting [1] is 15.8 µM [rising, single point].

On to `CCOc1ccc(NC(=O)Nc2cccn(Cc3ccccc3)c2=O)cc1`, for which, under setting [1], the AC50 is 35.5 µM [falling, single point]. On to `CCNc1cc(N2CCOCC2)nc(SC)n1`, for which the half-maximal activity concentration (AC50) under setting [1] was 20 µM [falling, partial curve, poor fit]. Take `O=C(C1=C[C@H](c2ccc(Br)cc2)C[C@H](OCc2ccc(CO)cc2)O1)N1CCN(Cc2ccc3c(c2)OCO3)CC1`: the AC50 under setting [1] was 15.8 µM [falling, single point].

`O=c1cc(-c2ccccc2Cl)oc2c(NS(=O)(=O)c3cc(Cl)cc(Cl)c3O)ccc(O)c12`: the AC50 under setting [1] was 29.1 µM [falling, single point]. In the case of `CSc1ccccc1NC(=O)C1=CC(c2cccs2)=NS(=O)(=O)N1C`, the AC50 under setting [1] is 35.5 µM [falling, single point]. With `Cc1cccc(NC(=O)CSc2ncnc3nc[nH]c23)c1`, the AC50 under setting [1] is 0.112 µM [falling, full curve, poor fit].

`CS(=O)(=O)N(Cc1ccccc1Cl)c1ccc(C(=O)N2CCCC2)cc1`: under setting [1], the AC50 was 6.31 µM [rising, single point]. As for `Cn1c(=O)n(C)c2cc(C(=O)Nc3ccc4c(c3)OCO4)ccc21`, under setting [1], the concentration at half-maximal activity (AC50) was 29.1 µM [rising, single point]. Still for that read-out and setting: the figure for `COc1cc(/C=N/Nc2nc(Nc3ccccc3)nc(-n3nc(C)cc3C)n2)cc(OC)c1OC` is 0.731 µM [falling, full curve]; for `O=[N+]([O-])c1ccc(-[n+]2nc(-c3ccccc3)nn2-c2ccccc2)cc1` it is 15.8 µM [rising, single point]; for `CCOc1ccc(S(=O)(=O)N(C)c2ccc(OCC(=O)OCc3c(C)noc3C)cc2)cc1` it is 35.5 µM [rising, single point]. Regarding `CCNC(=O)COc1cc(C)c(Br)c(C)c1`, the AC50 under setting [1] was 6.31 µM [rising, partial curve, poor fit]. `CCCCN(CC)C(=O)CSc1nc2n[nH]c(C)c2c(=N)n1-c1cccc(OC)c1`: the AC50 under setting [1] is 35.5 µM [falling, single point]. `Cc1c(O)ccc(/C(Cc2ccc3ccccc3n2)=N\N)c1O`: under setting [1], the AC50 was 2.51 µM [rising, single point]. On to `C=CCn1c(SCC(=O)NC(=O)NCCC)nnc1C1CCCCC1`, for which, under setting [1], the AC50 is 7.94 µM [falling, partial curve, poor fit]. As to `CNCCCN1c2ccccc2CCc2ccccc21`, the AC50 under setting [1] is 22.4 µM [falling, partial curve, poor fit].

`COC(=O)c1cn(NC(=O)/C=C/c2cc(OC)ccc2OC)c(=O)c2ccccc12`: under setting [1], the AC50 is 29.1 µM [falling, single point]. The same measure, in the same setting: the figure for `CNC(=O)c1c(NC(=O)c2nc3ccccc3s2)sc2c1CCC2` is 0.0731 µM [falling, full curve]; for `Fc1cccc(NC(=S)Nc2ccc(Br)cc2)c1` it is 3.55 µM [rising, partial curve, poor fit]. On to `CCOc1ccc(Cl)cc1/C=N/O`, for which the AC50 under setting [1] is 11.2 µM [rising, partial curve]. With `Cc1ccccc1OCCC(=O)N(Cc1ccccc1)c1c(N)n(Cc2ccccc2)c(=O)[nH]c1=O`, the concentration at half-maximal activity (AC50) under setting [1] was 11.2 µM [falling, single point]. Consider `CSc1cccc(NC(=O)CCCOc2ccc(Cl)cc2Cl)c1`, for which the AC50 under setting [1] was 29.1 µM [falling, single point]. Still for that read-out and setting: the figure for `O=S(=O)(c1ccc(Cl)cc1)c1snnc1-c1ccccc1` is 2.31 µM [falling, single point]; for `Cc1cc(C(=O)N2CCCC(N3CCN(c4cccc(C(F)(F)F)c4)CC3)C2)c(C)o1` (stereo unspecified) it is 8.91 µM [falling, partial curve, poor fit]. The same measure, in the same setting: the result for `CNS(=O)(=O)c1cc(NC(=O)c2cncn2-c2ccccc2)ccc1C` reads 7.94 µM [rising, partial curve, poor fit]. `O=S(=O)(Nc1nc(SCc2ccc(Cl)cc2)n[nH]1)c1ccc(F)cc1`: under setting [1], the AC50 was 6.31 µM [rising, single point]. The same measure, in the same setting: the figure for `CC(=O)N1CCc2cc(S(=O)(=O)NCCC(=O)NC3CCCc4ccccc43)ccc21` (stereo unspecified) is 4.61 µM [rising, single point]; for `CCOc1cc(/C=C/c2nc3ccccc3c(=O)[nH]2)ccc1O` it is 12.6 µM [falling, partial curve, poor fit]. For `CC(C)CN(CCCNC(=O)CN1N=C(c2ccc(Cl)cc2)CCC1=O)CC(C)C`, the AC50 under setting [1] is 35.5 µM [falling, single point]. For the molecule `COCC(C)NC(=O)c1cc(-c2ccc(O)cc2)on1` (stereo unspecified), under setting [1], the AC50 was 12.6 µM [falling, partial curve]. Turning to `C[C@H](CO)N1C[C@H](C)[C@@H](CN(C)S(=O)(=O)c2cccs2)Oc2ccc(NC(=O)Cc3ccccc3)cc2C1=O`, the AC50 under setting [1] is 16.4 µM [rising, partial curve, poor fit]. Regarding `C=CCn1c(-c2cc3c(s2)CCC(CC)C3)n[nH]c1=S` (stereo unspecified), the AC50 under setting [1] is 15.8 µM [rising, single point]. Still for that read-out and setting: the result for `Cc1ccc(-n2c(=O)[nH]c3c(C(N)=O)nc(CC(C)C)nc32)cc1` reads 3.26 µM [falling, partial curve]; that for `O=Cc1ccc(N2CCCCCC2)cc1`, 0.146 µM [rising, full curve, poor fit]. With `O=C(CSc1cccc[n+]1[O-])Nc1ccccc1Oc1ccccc1`, the AC50 (measured here: IkBa-CBG green luminescence) is 3.16 µM [falling, full curve]. As for `O=C(Nc1ccccc1)c1ccccc1C(=O)N1CCCCC1`, the AC50 under setting [1] is 10 µM [rising, partial curve, poor fit].
